These are yes or no findings as the source states them, for the method shown. Some binding calls cover weakened binding; strength is not graded here.
Target: EGFR-Fc (R&D Systems) (UniProt P00533)
Experiment: flow cytometry of CAR on primary T cells with labeled probe

- binding: binds
B1: CT-482 EGFR scFv CAR activator (scFv, not shown: small tags and cut ends)
scFv: EMQLVESGGGFVKPGGSLKLSCAASGFAFSHYDMSWVRQTPKQRLEWVAYIASGGDITYYADTVKGRFTISRDNAQNTLYLQMSSLKSEDTAMFYCSRSSYGNNGDALDFWGQGTSVTVSSGGGGSGGGGSGGGGSGGDVVMTQTPLSLPVSLGDQASISCRSSQSLVHSNGNTYLHWYLQKPGQSPKLLIYKVSNRFSGVPDRFSGSGSGTDFTLKISRVEAEDLGVYFCSQSTHVLTFGSGTKLEIK

— patent publication US20230277593A1
